Experimental data from patent US20180305451A1.
These are yes or no findings as the source states them, for the method shown. Some binding calls cover weakened binding; strength is not graded here. Each block holds one binder with its values, some of them ahead of it.

Assays:
human HIDE1 (human) [1] = molecular target: T1, human HIDE1 (human) (UniProt A8MVS5); assay: FACS on 293T-huHIDE1 cells, human IgG4
T1 sequence: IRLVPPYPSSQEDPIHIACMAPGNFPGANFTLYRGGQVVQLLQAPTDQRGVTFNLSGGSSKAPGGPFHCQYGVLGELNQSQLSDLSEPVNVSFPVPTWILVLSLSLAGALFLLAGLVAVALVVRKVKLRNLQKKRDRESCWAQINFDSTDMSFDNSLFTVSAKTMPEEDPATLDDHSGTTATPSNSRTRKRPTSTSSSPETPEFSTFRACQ

human HIDE1-flag (human) [2] = molecular target: human HIDE1-flag (human) (UniProt A8MVS5); assay: WB, extracts of HEK293 human HIDE1 flag cells
human HIDE1-flag (human) [3] = molecular target: human HIDE1-flag (human) (UniProt A8MVS5); assay: FACS, HEK293 human HIDE1 Flag cells
human HIDE1-flag (human) [4] = molecular target: human HIDE1-flag (human) (UniProt A8MVS5); assay: Western blot of whole cell extracts, goat anti-mouse HRP
human HIDE1-flag (human) [5] = molecular target: human HIDE1-flag (human) (UniProt A8MVS5); assay: FACS on HEK293 pMSCV human HIDE1 flag cells, controls Mouse IgG1 and HEK293 pMSCV cells, goat anti-mouse PE
[6] = molecular target: HIDE1_HH-1 (Human ECD + human IgG1 Fc mutated C220S at hinge), without SP (human); assay: SPR (ProteOn XPR 36): HIDE1-HH-1 captured on goat anti-human Fc GLC chip, Fab periplasmic extract injected 2 min, undiluted and 3-fold dilutions, 10 min dissociation
human HIDE1-flag (human) [7] = molecular target: human HIDE1-flag (human) (UniProt A8MVS5); assay: FACS, CHO-S OKT3 human HIDE1 Flag cells
human HIDE1 (human) [8] = molecular target: T1, human HIDE1 (human); assay: FACS, whole blood of 3 AML patients
human HIDE1 (human) [9] = molecular target: T1, human HIDE1 (human); assay: FACS on HL-60 and U937 cells transfected with human HIDE1 siRNA or scrambled siRNA, clone 33B4-2F7 by the legend paragraph 113, goat anti-mouse PE
human HIDE1-flag (human) [10] = molecular target: human HIDE1-flag (human) (UniProt A8MVS5); assay: FACS, CHO-S OKT3 cells over-expressing human HIDE1 Flag against empty vector, 33B4-2F7-Alexa 647 at 5 ug/ml
human HIDE1 (human) [11] = molecular target: T1, human HIDE1 (human); assay: FACS, endogenous HIDE1 on U-937, THP-1 and HL-60 cells
human HIDE1 (human) [12] = molecular target: T1, human HIDE1 (human); assay: FACS on PBMCs gated on CD14+ cells, Alexa 647 labelled antibody
human HIDE1 (human) [13] = molecular target: T1, human HIDE1 (human); assay: FACS on human cell lines (endogenous HIDE1), controls Mouse IgG1 and secondary only, goat anti-mouse PE
human HIDE1 (human) [14] = molecular target: T1, human HIDE1 (human); assay: FACS, whole blood of 3 healthy donors
human HIDE1 (human) [15] = molecular target: T1, human HIDE1 (human); assay: flow cytometry on whole blood of 3 healthy donors, gated lymphocytes, monocytes, neutrophils; against isotype control
human HIDE1 (human) [16] = molecular target: T1, human HIDE1 (human); assay: flow cytometry on whole blood of 3 AML patients, gated CD11b subsets and CD3+ cells; against isotype control

binding (human HIDE1 (human) [1]): binds
B1: CPA.12.004 human IgG4 (antibody, V domains shown)
VH: EVQLVETGGGLIQPGRSLRLSCVASDFRFSNHAMHWVRQAPGKELEWVAVISSDGSNRQYAYSVKGRFTISRDNSKNTLYLEMNILGPEDTAVYFCVRSHLGPEWYYGMDVWGQGTTVTVSS
VL: DIQMTQSPSSLSTSVGDSVTITCRSSQSISTFLSWFQHKPGKAPNLLIYDASSLQSGVPSRFSGSGSGTDFTLTISSLQPEDFATYYCQQSDYLPFTFGPGTKVEIKR

binding (human HIDE1 (human) [1]): binds
B2: CPA.12.013 human IgG4 (antibody, V domains shown)
VH: EVQLVETGGGLIQPGRSLRLSCVASDFRFSNHAMHWVRQAPGKELEWVAVISSDGSNRQYAYSVKGRFTISRDNSKNTLYLEMNILGPEDTAVYFCVRSHLGPEWYYGMDVWGQGTTVTVSS
VL: DIQMTQSPSSLSASVGDRVTITCQASHDIRKFLNWYQQHPGKAPKLLIYDAAYSEIGVPSRFSGGGSGTDFTFTINNLQPDDFATYYCQQYESLPFTFGPGTKVDIKR

binding (human HIDE1 (human) [1]): binds
B3: CPA.12.014 human IgG4 (antibody, V domains shown)
VH: QVTLKESGPALVTPTQNLTLTCTVSGGSISSSSYYWGWIRQPPGKGLEWIGSIYYSGSTYYNPSLKSRVTISVDTSKNQFSLKLSSVTAADTAVYYCARRRNSSGWFYFDYWGQGTLVTVSS
VL: QSVLTQPPSVSGAPRQRVTISCSGSRSNIGDNAVNWYQHPPGKAPKLLIYYDDLLPSGVSDRFSGSKSGTSASLAISGLQSEDEADYYCATWDDSLNGHVFGTGTKLTVLG

binding (human HIDE1 (human) [1]): binds
B4: CPA.12.002 human IgG4 (antibody, V domains shown)
VH: EVQLVESGGGLVQPGRSLRLSCAASGFTFSSYAMHWVRQVPGKGLEWVAVISYDGSNKYYADSVKGRFTISRDNSKNTLYLQMNSLRAEDTAVYYCAKPMYSSGWYPLGYWGQGTLVTVSS
VL: DIVMTQTPLSLPVTPGQPASISCRSSQSPLDTDGNTYLDWYLQRPGQSPQLLIYTLSNRASGVPDRFSGSGSGTDFTLKISRVEAEDVGIYYCMQRIQYPLTFGPGTRLEIKR

binding (human HIDE1-flag (human) [2]): binds | binding (human HIDE1-flag (human) [3]): binds | binding (human HIDE1-flag (human) [4]): binds | binding (human HIDE1-flag (human) [5]): binds
B5: Mouse anti human HIDE1 mAb (Biotem #39A7-3A10-3G8) (antibody, mouse IgG1, kappa, V domains shown)
VH: QVQLQQSGAELVRPGASVKLSCKALGYTFTDYEMHWVKQTPVHGLEWIGDIYPGSGGTAYNQKFKGKATLTADKSSSTAYMELSSLTSEDSAVYYCTRKGRSFAYWGQGTLVTVSA
VL: NIVMTQSPKSMSMSVGERVTLSCKASENVDTYVSWYQQKPEQSPKLLIYGASNRYTGVPDRFTGSGSATDFTLIISSVQAEDLADYHCGQSYRYPLTFGAGTKLELKR

binding [6]: binds
B6: CPA.12.009 Fab (A10 S398-02.A04) (Fab, V domains shown)
VH: QMQLVQSGAEVKKPGASVKVSCKASGYTFTTHAFSWVRQAPGLGLEWMGWISTYNGNTKYEQKFQGRVTLTTDSSTNTAYMELRSLRSDDTAVYYCVRDSRAFDVWGQGTMVTVSS
VL: DIQLTQSPSFLSASVGDRVTITCRASQGINSYLAWYQQKPGAAPKLLIYAASTLQSGVPSRFSGSGSGTEFTLTISSLQPEDFATYYCQQLNTYPLIFGQGTRLEIKR

binding (human HIDE1 (human) [1]): binds
B7: CPA.12.009 human IgG4 (antibody, V domains shown)
VH: QMQLVQSGAEVKKPGASVKVSCKASGYTFTTHAFSWVRQAPGLGLEWMGWISTYNGNTKYEQKFQGRVTLTTDSSTNTAYMELRSLRSDDTAVYYCVRDSRAFDVWGQGTMVTVSS
VL: DIQLTQSPSFLSASVGDRVTITCRASQGINSYLAWYQQKPGAAPKLLIYAASTLQSGVPSRFSGSGSGTEFTLTISSLQPEDFATYYCQQLNTYPLIFGQGTRLEIKR

binding (human HIDE1 (human) [1]): binds
B8: CPA.12.015 human IgG4 (antibody, V domains shown)
VH: QVQLQESGPGLVKPSETLSLTCTVSGGSISSSSYYWGWIRQPPGKGLEWIGSIYYSGSTHYNPSLKSRVTISVDTSKNQFSLKLSSVTAADTAVYYCARVYYGSGTGGAFDIWGQGTMVTVSS
VL: QSVLTQPPSVSGAPGQRVTISCTGSSSNIGAAYDVHWYQQLPGTAPKLLIYGDTIRPSGVPDRFSGSKSGTSASLAITGLQAEDEADYYCQSYDSSLSGSWVFGGGTQLTVLG

binding (human HIDE1 (human) [1]): binds
B9: CPA.12.003 human IgG4 (antibody, V domains shown)
VH: QVQLQESGPGLVTPSETLSLTCTVSGGSISSVSYYWGWVRQPPGKGLEWIGSIYYSGTTAHNPSLKSRVTMAVDTSKNQFSLSLSSVTAADTAVYFCARGWRYYEDYYFDHWGQGTLVTVSS
VL: DIQMTQSPSTLSASVGDRVTITCRASQSINRWLAWYQQKPGKAPKILIYTASSLESGVPSRFSGSGSGTEFTLTISSLQPDDFATYYCQQYNSYPITFGQGTRLEIKR

binding (human HIDE1 (human) [1]): binds
B10: CPA.12.008 human IgG4 (antibody, V domains shown)
VH: QVQLQESGPGLVTPSETLSLTCTVSGGSISSVSYYWGWVRQPPGKGLEWIGSIYYSGTTAHNPSLKSRVTMAVDTSKNQFSLSLSSVTAADTAVYFCARGWRYYEDYYFDHWGQGTLVTVSS
VL: AIRMTQSPSSLSASVGDRVTITCQASQDISNYLNWYQQKPGKAPKSLIYAASSLQSGVPSKFSGSGSGTDFTLTISSLQPEDFATYYCQQYYSYPLTFGGGTKVEIKR

binding (human HIDE1 (human) [1]): binds
B11: CPA.12.007 human IgG4 (antibody, V domains shown)
VH: EVQLVESGGGVVQPGESLRLSCAASGFTFSSYGFHWVRQSPGEGLEWLAVISYDGTSKSYADSVKGRFTVSRDNSKETLYLQLSSLRREDTALYYCARDTWGYYYGMDVWGQGTTVTVSS
VL: DIQMTQSPSFLSGSVGDRVSISCRASQDIRSHLAWYQRKPGEAPKLLIYTASSLQGGVPLRFSGSGSGTEFTLTISSLQPEDSATYYCQHLHLYPLTFGGGTKLEIKR

binding (human HIDE1 (human) [1]): binds
B12: CPA.12.006 human IgG4 (antibody, V domains shown)
VH: EVQLVESGGGVVQPGRSLRLSCAASGFTFSSFAMHWVRQAPGKGPEWLGIILYEGGHVVYADSVRGRLTISRDNSKNTLYLQMDSLRDEDTAVYYCAKGFYHAFDVWGQGTMVTVSS
VL: QAVLTQPASLSASPGASASLTCTLRSGINVGTYRIYWYQQKPGSPPQYLLRYKSDSDKQQGSGVPSRFSGSKDASANAGILLISGLQSEDEADYYCMIWHSSAWVFGGGTQLTVLG

binding (human HIDE1-flag (human) [2]): binds | binding (human HIDE1-flag (human) [3]): binds | binding (human HIDE1-flag (human) [7]): binds | binding (human HIDE1 (human) [8]): binds | binding (human HIDE1 (human) [9]): binds | binding (human HIDE1-flag (human) [10]): binds | binding (human HIDE1 (human) [11]): binds | binding (human HIDE1-flag (human) [4]): binds | binding (human HIDE1 (human) [12]): binds | binding (human HIDE1 (human) [13]): binds | binding (human HIDE1 (human) [14]): binds | binding (human HIDE1-flag (human) [5]): binds | binding (human HIDE1 (human) [15]): binds | binding (human HIDE1 (human) [16]): binds
B13: Mouse anti human HIDE1 mAb (Biotem #33B4-2F7) (antibody, mouse IgG1, kappa, V domains shown)
VH: QIQLVQSGPELKKPGETVKISCKASGYTFTNYGMNWVKQAPGKGLKWMGWINTYTGEPTYADDFKGRFAFSLETPASTAYLQINNLKNEDMATYFCVREHFYALDYWGQGTSVTVSS
VL: KIVLTQSPASLAVSLRQRATISCRASESVDSYGNSFMHWYQQKPGQPPKLLIYRASNLESGVPARFSGSGSRTDFTLTIDPVEADDAATYYCQQSNEDPRTFGGGTKLEIKR
